From PubChem BioAssay AID540256 (National Center for Advancing Translational Sciences (NCATS), 2011)
The campaign covered roughly 300,000 compounds. About 3,700 (1.2%) were called active. Inconclusive means that the source gave no clear call. Such entries were picked first, then a sample of the others. Calls follow the shape of the full dose curve; tested in HEK293 cells. Potencies of inconclusive entries are doubtful fits and often do not repeat.

test: qHTS for Inhibitors of binding or entry into cells for Lassa Virus; details: Lassa virus pseudotype entry inhibition, cell reporter; series mostly up to 37.9 µM; also: nearly all actives have a fitted effect of over 50% in size
Potency is read from the fitted curve at half-maximal effect.

For Cc1cccc(N(C(=O)c2nsc(Cl)c2Cl)C(C(=O)NC2CCCC2)c2ccc(O)cc2)c1 (stereo not drawn), which Potency is on record?
Its Potency is inconclusive: 7.08 µM [inhibitor, partial curve].

Which Potency does the source give for COc1cccc(NC(=O)Nc2nc(SC)ns2)c1 here?
The Potency was “inactive”.

For CCCOc1ccc(C(=O)Nc2cc(S(=O)(=O)N3CCOCC3)ccc2N2CCN(CC)CC2)cc1OC, which Potency is on record?
Its Potency is inconclusive: 1 µM [inhibitor, partial curve].

With Cc1cc(NC(=O)CN(c2cccc(C)c2C)S(=O)(=O)c2ccccc2)ccc1Br as the molecule, how does the Potency read?
The Potency was inconclusive: 31.6 µM [inhibitor, single point].

Which Potency does the source give for CCOc1ccccc1Nc1ccc2cc(S(=O)(=O)N3CCCCC3)ccc2n1 here?
The Potency was inconclusive: 35.5 µM [inhibitor, single point].

Which Potency does the source give for O=C1NC(=O)C(CCc2ccncc2)(CCc2ccncc2)C(=O)N1CCc1ccc(F)cc1 here?
The Potency was inconclusive: 10 µM [inhibitor, partial curve, poor fit].

Which Potency does the source give for CCOC(=O)Nc1ccc(N2CCOCC2)c(S(=O)(=O)N2CCOCC2)c1 here?
Its Potency is “inactive”.

For O=C(CC1(O)C(=O)Nc2cc(Cl)cc(Cl)c21)c1ccncc1 (stereo not drawn), which Potency is on record?
Its Potency is inconclusive: 16.4 µM [inhibitor, partial curve, poor fit].

Which Potency does the source give for Cc1cc(C)n(-c2nc3ccccc3c(=O)n2OCC(=O)OCc2ccccc2)n1 here?
Its Potency is inconclusive: 35.5 µM [inhibitor, single point].

For COc1cccc(COCCN2CCN(S(=O)(=O)c3ccc(C)cc3)CCC2=O)c1, which Potency is on record?
The Potency was inconclusive: 29.1 µM [inhibitor, single point].

For Cc1ccc2[nH]c(C(F)(F)F)cc(=O)c2c1, which Potency is on record?
Its Potency is inconclusive: 25.1 µM [inhibitor, partial curve, poor fit].

For COc1ccc(NS(=O)(=O)c2ccc(C)c(NC(=O)CNC(=O)c3ccco3)c2)cc1, which Potency is on record?
Its Potency is “inactive”.

For O=C1NC(=S)NC1=Cc1ccc(Cl)cc1Cl, which Potency is on record?
The Potency was inconclusive: 3.98 µM [inhibitor, single point].

With Cc1ccc(OCC(=O)Nc2ccc(-c3nc4ccc(C)cc4o3)cc2)cc1 as the molecule, how does the Potency read?
Its Potency is inconclusive: 17.8 µM [activator, single point].

Which Potency does the source give for CCOC(=O)c1c(C)c(C(=O)NCc2cccs2)c(C)n1C here?
The Potency was inconclusive: 16.4 µM [inhibitor, partial curve, poor fit].

With COc1ccc(OCC(=O)Nc2cc(S(=O)(=O)N3CCCC3)ccc2Cl)cc1 as the molecule, how does the Potency read?
The Potency was “inactive”.

Which Potency does the source give for Cc1cccc(C(=O)Nc2cccc(C(=O)OCc3cc(=O)n4nc(C5CC5)sc4n3)c2)c1 here?
Its Potency is inconclusive: 11.2 µM [activator, partial curve, poor fit].

With CSc1nc(N2CCN(c3ccccc3Cl)CC2)c2ccccc2n1 as the molecule, how does the Potency read?
The Potency was “inactive”.

With CCCCOc1ccccc1NC(=O)Cn1c(-c2nonc2N)nc2ccccc21 as the molecule, how does the Potency read?
The Potency was inconclusive: 5.01 µM [inhibitor, partial curve, poor fit].

For CC(=O)Nc1nc2ccc(NC(=O)c3ccco3)cc2s1, which Potency is on record?
Its Potency is “inactive”.

With O=C(O)c1cccnc1Nc1cccc(C(F)(F)F)c1 as the molecule, how does the Potency read?
The Potency was inconclusive: 1.16 µM [inhibitor, full curve, poor fit].

For CCN(CC)C(=O)Oc1ccnc2cc(Cl)ccc12, which Potency is on record?
Its Potency is inconclusive: 11.2 µM [inhibitor, partial curve, poor fit].

Which Potency does the source give for Cc1cc(C)n(CC(=O)N2CCCC(N3CCN(Cc4ccc5c(c4)OCO5)CC3)C2)n1 (stereo not drawn) here?
The Potency was inconclusive: 3.55 µM [inhibitor, partial curve, poor fit].

For NC(=O)C[N+]1(CC#CC(O)(c2ccccc2)c2ccccc2)CCCC1, which Potency is on record?
Its Potency is inconclusive: 12.6 µM [activator, partial curve, poor fit].

For O=[N+]([O-])c1ccc(C(c2sc3nc(-c4ccco4)nn3c2O)N2CCC3(CC2)OCCO3)cc1 (stereo not drawn), which Potency is on record?
The Potency was “inactive”.

With COCCCNC(=O)/C(C#N)=C/c1cc(C)[nH]c1C as the molecule, how does the Potency read?
Its Potency is inconclusive: 35.5 µM [inhibitor, single point].

With Cc1cc(C)n2nc(SCc3cccc(F)c3)nc2n1 as the molecule, how does the Potency read?
The Potency was inconclusive: 2 µM [activator, partial curve, poor fit].

Which Potency does the source give for Cc1ccc(C(=O)NC2CCN(S(=O)(=O)c3ccccc3F)CC2)cc1 here?
Its Potency is inconclusive: 1.26 µM [activator, single point].

For Cc1cccc(NC(=O)CN2C(=O)CCc3ccccc32)c1C, which Potency is on record?
The Potency was “inactive”.

With Cc1ccc(-c2nc3ccccc3[nH]2)cc1NC(=O)c1ccc2c(c1)OCO2 as the molecule, how does the Potency read?
Its Potency is inconclusive: 0.411 µM [inhibitor, full curve, poor fit].

With Cc1cccc(C2CC(=O)Oc3c2c(=O)oc2ccccc32)c1 (stereo not drawn) as the molecule, how does the Potency read?
The Potency was inconclusive: 1 µM [inhibitor, full curve, poor fit].

Which Potency does the source give for CC(=O)c1sc(NC(=O)C2=NN(c3ccccc3)C(=O)CC2)nc1C here?
Its Potency is inconclusive: 4.47 µM [activator, full curve, poor fit].

With Cc1nc2ccc(Cl)cc2nc(C)/c1=N\O as the molecule, how does the Potency read?
Its Potency is inconclusive: 3.55 µM [activator, partial curve, poor fit].

For CCCCCCNC(=O)Nc1ccccc1, which Potency is on record?
The Potency was “inactive”.

Which Potency does the source give for Cc1cccc(-c2nnc(SCCC(=O)O)o2)c1 here?
Its Potency is active: 1.26 µM.

Which Potency does the source give for Cc1ccc(C(C)(C)C)cc1S(=O)(=O)N1CC(=O)Nc2ccccc21 here?
The Potency was inconclusive: 15.8 µM [inhibitor, single point].

With CNc1cc(C)nc(-n2nc(C)cc2C)n1 as the molecule, how does the Potency read?
The Potency was “inactive”.

Which Potency does the source give for COc1ccc(NC(C)=O)cc1S(=O)(=O)Nc1ccccc1C(=O)NCCc1ccccc1 here?
The Potency was inconclusive: 35.5 µM [inhibitor, partial curve, poor fit].

With O=C(c1cnn2c(C(F)(F)F)cc(-c3ccco3)nc12)N1CCc2ccccc2C1 as the molecule, how does the Potency read?
Its Potency is inconclusive: 0.0082 µM [inhibitor, full curve, poor fit].

Which Potency does the source give for O=C(Nc1nc(=O)n(C(=O)C2CC2)s1)c1ccccc1 here?
Its Potency is “inactive”.

With O=C(N/N=C/C(Br)=C/c1ccccc1)c1cccs1 as the molecule, how does the Potency read?
Its Potency is inconclusive: 35.5 µM [inhibitor, single point].

For CCOC(=O)c1cccc(NC(=O)CCc2nc(-c3ccc(C)cc3)no2)c1, which Potency is on record?
Its Potency is inconclusive: 20 µM [inhibitor, single point].

Which Potency does the source give for COc1ccc(NC(=O)C(=S)NC2CCCCC2)cc1 here?
The Potency was inconclusive: 35.5 µM [inhibitor, single point].
